No constants are given. Whether binding was seen depends on the method and setting. Some binding calls cover weakened binding; strength is not graded here. Where a sequence is shown, tags or fusion partners need not be part of it.
Molecular target: T1, myc-tagged wild type LAT, stably expressed in Jurkat cells, C305 stimulated (human) (UniProt O43561)
T1 sequence (chain, tyrosine phosphorylated upon stimulation; sites not mapped): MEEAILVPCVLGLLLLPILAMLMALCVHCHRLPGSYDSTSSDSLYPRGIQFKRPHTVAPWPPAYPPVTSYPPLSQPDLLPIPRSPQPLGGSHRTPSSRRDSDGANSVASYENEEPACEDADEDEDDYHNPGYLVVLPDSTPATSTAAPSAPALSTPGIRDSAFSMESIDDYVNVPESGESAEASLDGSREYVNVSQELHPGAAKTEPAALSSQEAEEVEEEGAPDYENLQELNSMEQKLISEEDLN
Assay: anti-myc immunoprecipitation from C305-stimulated stable Jurkat transfectants, immunoblot

The chains behind the UniProt entries cited, without tags or fusion partners. Where a name states a change or a piece, a line headed by the entry shows the natural chain unless it says otherwise. Residues count along the entry.
UniProt P62993: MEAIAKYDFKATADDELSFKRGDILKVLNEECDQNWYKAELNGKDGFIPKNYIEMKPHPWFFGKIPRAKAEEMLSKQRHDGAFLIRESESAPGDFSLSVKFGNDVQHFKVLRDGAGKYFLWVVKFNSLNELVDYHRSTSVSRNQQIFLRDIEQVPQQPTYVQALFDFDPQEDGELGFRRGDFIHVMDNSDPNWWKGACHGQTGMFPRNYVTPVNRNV
UniProt P27986, residues 2-724: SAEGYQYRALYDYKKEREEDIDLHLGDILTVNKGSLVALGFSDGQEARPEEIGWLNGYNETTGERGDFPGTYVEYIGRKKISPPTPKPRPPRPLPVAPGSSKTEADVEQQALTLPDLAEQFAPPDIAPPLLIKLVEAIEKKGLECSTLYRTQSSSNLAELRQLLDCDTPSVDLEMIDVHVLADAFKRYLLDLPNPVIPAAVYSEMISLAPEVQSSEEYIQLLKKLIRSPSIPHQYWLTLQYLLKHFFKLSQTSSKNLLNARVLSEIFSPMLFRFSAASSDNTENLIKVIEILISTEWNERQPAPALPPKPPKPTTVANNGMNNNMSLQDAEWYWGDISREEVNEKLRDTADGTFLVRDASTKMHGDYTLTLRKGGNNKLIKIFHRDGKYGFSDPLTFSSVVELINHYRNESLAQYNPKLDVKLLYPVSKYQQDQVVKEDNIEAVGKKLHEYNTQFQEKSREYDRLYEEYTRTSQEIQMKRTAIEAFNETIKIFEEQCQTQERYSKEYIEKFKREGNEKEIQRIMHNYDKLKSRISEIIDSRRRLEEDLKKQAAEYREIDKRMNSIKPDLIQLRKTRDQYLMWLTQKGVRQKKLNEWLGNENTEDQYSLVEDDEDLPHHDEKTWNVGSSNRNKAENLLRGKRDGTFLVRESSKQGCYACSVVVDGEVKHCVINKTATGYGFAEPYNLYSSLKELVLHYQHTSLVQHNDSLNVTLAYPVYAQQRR

Grb2, endogenous (293T cells and Jurkat T cells) (from UniProt P62993 1-217)
binding: binds

p85 subunit of PI3K, endogenous, Jurkat T cells (from UniProt P27986 2-724)
binding: binds
